Measurements taken from paper PMC8533176, “1,5-Benzodiazepin-2(3H)-ones: In Vitro Evaluation as Antiparkinsonian Agents” (Antioxidants, 2021).
Some entries repeat one wording, which the source may state once for all of them.

Assay: Chemical reactivity with MTT (without cells)
Conditions: 4 h at 37 °C, DMEM:F12 without cells

In the case of O=C1CC(c2ccccc2)=Nc2ccccc2N1 [Compound 18, 4-Phenyl-1H-1,5-benzodiazepin-2(3H)-one], the “Reaction with MTT” value is reported as “No significant reaction was detected”.
For O=C1CC(c2ccccc2)=Nc2cc(F)ccc2N1 [Compound 13, 7-Fluoro-4-phenyl-H-1,5-benzodiazepin-2(3H)-one], the “Reaction with MTT” value was “No significant reaction was detected”.
With O=C1CC(c2ccccc2)=Nc2ccc(F)cc2N1 [Compound 11, 8-Fluoro-4-phenyl-1H-1,5-benzodiazepin-2(3H)-one] the “Reaction with MTT” value was “No significant reaction was detected”.
With O=C1CC(c2ccccc2)=Nc2cc(F)c(F)cc2N1 [Compound 9, 7,8-Difluoro-4-phenyl-1H-1,5-benzodiazepin-2(3H)-one] the “Reaction with MTT” value was “No significant reaction was detected”.
